This is one part of the list.

By UniProt entry, the sequences of proteins in these tests, tags left out. Where a name states a change or a piece, a line headed by the entry shows the natural chain unless it says otherwise.
UniProt Q96K31: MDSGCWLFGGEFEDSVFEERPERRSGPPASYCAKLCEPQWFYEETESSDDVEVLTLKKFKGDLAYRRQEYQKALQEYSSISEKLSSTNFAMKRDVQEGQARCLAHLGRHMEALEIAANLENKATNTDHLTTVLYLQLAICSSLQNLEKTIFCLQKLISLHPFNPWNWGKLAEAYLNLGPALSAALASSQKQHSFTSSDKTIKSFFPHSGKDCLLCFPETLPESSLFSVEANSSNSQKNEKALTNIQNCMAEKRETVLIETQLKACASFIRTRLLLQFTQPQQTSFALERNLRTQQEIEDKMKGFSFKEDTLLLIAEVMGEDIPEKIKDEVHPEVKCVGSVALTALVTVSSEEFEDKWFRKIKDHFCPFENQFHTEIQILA
UniProt Q6UWU4: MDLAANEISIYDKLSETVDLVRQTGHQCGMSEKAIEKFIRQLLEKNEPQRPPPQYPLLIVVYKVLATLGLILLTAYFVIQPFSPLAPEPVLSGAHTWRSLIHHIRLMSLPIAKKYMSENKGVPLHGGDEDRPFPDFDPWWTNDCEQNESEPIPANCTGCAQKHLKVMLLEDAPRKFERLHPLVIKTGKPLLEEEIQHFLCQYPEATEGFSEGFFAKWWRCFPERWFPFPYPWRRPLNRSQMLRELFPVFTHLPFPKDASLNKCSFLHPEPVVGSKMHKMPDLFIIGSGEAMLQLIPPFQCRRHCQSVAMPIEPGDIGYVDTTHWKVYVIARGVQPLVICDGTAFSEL
UniProt O43852: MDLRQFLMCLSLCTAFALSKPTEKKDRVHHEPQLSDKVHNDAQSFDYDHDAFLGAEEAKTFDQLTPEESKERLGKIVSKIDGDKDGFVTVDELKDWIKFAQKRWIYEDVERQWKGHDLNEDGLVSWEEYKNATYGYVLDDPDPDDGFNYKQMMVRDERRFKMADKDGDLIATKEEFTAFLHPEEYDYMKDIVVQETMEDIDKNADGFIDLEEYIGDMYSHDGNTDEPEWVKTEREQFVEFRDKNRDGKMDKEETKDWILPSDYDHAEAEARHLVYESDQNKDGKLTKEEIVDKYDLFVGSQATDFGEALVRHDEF
UniProt Q8IXQ3: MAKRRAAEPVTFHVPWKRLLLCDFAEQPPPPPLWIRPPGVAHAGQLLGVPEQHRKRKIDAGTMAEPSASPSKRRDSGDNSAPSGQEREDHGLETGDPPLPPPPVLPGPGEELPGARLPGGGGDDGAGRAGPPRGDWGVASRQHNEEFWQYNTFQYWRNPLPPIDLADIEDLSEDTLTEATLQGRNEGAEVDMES
UniProt Q14444, whole entry, looked up: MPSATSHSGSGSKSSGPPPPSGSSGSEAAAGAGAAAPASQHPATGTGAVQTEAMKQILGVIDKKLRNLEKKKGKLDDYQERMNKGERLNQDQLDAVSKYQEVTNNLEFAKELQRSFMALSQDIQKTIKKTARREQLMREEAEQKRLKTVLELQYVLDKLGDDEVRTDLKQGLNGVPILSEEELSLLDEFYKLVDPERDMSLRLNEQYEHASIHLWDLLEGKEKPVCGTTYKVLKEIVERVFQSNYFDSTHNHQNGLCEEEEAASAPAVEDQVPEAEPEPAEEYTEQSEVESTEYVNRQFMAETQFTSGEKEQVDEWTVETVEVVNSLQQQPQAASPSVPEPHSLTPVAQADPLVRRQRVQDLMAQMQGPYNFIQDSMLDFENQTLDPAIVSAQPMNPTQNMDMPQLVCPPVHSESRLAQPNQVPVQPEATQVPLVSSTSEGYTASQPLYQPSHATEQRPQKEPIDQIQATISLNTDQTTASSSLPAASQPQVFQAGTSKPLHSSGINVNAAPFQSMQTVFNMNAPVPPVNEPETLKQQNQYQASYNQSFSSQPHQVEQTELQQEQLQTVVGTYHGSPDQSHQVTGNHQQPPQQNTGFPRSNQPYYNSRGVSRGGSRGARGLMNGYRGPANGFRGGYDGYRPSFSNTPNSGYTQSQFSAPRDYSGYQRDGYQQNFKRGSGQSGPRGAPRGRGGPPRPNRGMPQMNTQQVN
UniProt Q9H3H3: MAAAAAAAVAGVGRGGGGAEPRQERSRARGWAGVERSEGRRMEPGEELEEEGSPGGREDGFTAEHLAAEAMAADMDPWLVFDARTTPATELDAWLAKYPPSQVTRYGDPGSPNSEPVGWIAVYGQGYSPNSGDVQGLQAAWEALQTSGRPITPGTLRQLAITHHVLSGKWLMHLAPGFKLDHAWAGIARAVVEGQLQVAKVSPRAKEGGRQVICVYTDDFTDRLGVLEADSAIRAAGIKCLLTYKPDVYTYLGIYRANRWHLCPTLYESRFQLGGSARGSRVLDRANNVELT
UniProt Q96LW7: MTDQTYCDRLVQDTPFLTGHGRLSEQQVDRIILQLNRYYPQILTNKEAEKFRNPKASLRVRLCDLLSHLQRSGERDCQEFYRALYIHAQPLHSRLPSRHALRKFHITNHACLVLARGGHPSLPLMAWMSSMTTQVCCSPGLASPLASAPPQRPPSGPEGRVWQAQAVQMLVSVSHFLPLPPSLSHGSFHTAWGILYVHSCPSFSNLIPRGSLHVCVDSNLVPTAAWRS
UniProt P04003: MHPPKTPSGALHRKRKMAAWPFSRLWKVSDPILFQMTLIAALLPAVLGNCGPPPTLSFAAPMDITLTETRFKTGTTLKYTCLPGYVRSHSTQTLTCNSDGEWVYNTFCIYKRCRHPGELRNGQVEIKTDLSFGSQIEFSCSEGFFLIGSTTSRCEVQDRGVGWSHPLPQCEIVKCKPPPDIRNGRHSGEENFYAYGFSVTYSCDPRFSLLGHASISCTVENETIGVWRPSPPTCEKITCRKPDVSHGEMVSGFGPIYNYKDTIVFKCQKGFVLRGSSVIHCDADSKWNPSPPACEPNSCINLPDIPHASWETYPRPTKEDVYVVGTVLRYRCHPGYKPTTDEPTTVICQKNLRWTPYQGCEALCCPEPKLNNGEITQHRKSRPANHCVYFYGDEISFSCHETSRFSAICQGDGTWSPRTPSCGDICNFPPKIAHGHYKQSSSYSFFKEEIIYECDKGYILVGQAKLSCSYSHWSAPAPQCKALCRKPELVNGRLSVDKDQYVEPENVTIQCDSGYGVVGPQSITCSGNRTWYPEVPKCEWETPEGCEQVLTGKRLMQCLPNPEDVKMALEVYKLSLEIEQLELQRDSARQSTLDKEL
UniProt O60566, whole entry, looked up: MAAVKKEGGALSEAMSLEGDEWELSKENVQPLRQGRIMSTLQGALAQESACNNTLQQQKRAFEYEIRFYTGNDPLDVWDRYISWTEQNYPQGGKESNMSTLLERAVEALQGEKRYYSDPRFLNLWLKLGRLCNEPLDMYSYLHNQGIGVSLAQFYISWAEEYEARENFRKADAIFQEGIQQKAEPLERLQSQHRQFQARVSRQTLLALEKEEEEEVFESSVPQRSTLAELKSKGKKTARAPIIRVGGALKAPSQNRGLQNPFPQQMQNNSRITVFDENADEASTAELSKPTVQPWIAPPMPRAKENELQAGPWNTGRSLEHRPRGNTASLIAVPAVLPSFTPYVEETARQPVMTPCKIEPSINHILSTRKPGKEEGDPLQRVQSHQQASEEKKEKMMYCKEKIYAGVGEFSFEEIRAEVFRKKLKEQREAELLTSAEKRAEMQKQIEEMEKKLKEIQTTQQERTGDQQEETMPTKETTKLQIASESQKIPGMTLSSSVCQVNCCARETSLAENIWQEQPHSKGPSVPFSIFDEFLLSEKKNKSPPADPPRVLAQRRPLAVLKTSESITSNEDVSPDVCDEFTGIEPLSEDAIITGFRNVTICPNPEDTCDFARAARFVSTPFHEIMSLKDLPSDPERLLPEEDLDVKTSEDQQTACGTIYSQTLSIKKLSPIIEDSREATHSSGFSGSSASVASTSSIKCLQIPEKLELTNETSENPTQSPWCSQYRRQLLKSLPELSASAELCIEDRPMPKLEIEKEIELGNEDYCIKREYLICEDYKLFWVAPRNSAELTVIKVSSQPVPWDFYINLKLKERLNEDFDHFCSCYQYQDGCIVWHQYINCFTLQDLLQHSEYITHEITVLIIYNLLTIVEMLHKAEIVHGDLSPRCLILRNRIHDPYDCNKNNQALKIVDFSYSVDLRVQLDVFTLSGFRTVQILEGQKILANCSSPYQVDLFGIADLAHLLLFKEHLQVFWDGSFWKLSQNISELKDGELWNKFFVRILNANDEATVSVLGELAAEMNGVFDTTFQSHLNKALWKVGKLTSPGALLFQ
UniProt Q9NZ63: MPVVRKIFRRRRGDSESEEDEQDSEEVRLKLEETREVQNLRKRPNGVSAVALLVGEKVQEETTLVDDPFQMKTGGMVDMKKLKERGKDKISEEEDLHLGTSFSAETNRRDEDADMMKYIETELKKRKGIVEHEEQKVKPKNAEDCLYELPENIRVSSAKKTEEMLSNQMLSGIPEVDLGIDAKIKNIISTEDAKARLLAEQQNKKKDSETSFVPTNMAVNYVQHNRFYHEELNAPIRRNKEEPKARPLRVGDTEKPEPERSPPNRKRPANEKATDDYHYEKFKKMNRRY
UniProt Q8N6N3: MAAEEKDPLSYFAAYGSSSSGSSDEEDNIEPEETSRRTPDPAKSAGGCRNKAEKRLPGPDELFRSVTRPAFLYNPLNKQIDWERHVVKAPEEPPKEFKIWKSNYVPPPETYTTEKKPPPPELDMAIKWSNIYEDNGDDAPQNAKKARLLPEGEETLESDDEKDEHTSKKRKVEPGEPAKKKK
UniProt Q8N1Q1: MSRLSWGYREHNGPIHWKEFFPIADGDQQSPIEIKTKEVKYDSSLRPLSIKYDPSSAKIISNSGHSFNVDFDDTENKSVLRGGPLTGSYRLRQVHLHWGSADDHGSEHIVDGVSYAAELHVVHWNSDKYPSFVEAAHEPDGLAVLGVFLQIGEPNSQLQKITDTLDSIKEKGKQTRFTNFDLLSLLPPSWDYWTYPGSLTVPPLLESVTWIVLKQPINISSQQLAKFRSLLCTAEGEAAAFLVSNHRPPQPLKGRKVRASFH
UniProt P05937: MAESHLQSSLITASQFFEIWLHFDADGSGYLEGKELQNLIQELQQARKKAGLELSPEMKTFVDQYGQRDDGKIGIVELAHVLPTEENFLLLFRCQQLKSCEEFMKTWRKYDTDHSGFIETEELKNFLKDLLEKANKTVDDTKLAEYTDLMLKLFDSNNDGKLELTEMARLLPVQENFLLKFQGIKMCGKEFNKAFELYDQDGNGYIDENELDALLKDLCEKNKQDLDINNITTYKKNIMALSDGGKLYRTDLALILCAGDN
UniProt Q13901: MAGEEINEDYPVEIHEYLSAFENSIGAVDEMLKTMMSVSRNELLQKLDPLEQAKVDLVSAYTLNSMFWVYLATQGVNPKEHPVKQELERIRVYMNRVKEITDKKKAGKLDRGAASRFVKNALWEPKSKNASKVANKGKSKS
UniProt Q96GQ5: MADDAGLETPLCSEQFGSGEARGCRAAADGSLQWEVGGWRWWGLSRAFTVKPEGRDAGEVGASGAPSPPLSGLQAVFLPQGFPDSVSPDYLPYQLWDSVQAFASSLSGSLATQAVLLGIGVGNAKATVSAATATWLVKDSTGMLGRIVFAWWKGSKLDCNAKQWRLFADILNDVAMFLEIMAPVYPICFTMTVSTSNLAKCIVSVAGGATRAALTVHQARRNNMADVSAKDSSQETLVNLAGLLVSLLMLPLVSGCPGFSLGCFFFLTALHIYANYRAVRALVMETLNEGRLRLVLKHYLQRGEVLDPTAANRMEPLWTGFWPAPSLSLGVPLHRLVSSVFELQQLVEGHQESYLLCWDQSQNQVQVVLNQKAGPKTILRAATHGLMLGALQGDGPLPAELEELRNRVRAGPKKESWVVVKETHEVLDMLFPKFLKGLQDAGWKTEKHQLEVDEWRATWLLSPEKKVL
UniProt P10643, whole entry, looked up: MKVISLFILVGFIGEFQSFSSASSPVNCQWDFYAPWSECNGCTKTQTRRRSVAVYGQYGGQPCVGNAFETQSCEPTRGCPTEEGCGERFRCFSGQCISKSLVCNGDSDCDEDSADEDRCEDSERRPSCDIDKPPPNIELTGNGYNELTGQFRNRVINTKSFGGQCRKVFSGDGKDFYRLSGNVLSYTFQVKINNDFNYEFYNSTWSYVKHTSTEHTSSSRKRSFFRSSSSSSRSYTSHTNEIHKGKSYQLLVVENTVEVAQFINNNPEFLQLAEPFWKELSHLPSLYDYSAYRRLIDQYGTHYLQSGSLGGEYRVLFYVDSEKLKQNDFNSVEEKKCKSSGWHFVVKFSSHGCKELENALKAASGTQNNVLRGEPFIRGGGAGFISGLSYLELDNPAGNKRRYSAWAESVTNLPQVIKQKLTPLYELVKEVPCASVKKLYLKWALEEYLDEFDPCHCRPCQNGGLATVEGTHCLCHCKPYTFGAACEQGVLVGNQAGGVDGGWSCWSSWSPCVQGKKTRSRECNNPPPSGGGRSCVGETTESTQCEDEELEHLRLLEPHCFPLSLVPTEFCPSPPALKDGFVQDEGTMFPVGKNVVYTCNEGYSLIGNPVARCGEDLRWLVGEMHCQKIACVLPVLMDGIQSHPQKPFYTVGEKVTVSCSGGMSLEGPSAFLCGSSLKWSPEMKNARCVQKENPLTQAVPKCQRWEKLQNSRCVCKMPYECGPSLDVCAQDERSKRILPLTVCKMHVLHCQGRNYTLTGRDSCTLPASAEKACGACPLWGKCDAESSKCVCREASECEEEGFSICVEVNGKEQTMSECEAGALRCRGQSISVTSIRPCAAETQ

Experimental findings from the supplement of paper PMC10849652 are described below.

Compound in the test: NC(=O)c1cnc(N[C@@H]2CCCC[C@@H]2N)nc1Nc1cccc(-n2nccn2)c1
As to the kind of experiment: log2 fold change, soluble protein after heating vs DMSO (PISA); higher = thermal stabilisation; K562 cells, 10 uM, 30 min; active = over 0.2 and 3.5 SD of the protein, either way, in both replicates (recomputed). In outline:
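Quantification of soluble protein used TMTpro 16plex LC-MS/MS, with channel sums equalised. Samples were the supernatant after 21,000xg for 90 min of pooled aliquots from K562 cells (2×10^6 cells/mL) treated with 10 μM compound for 30 min, heated for 3 min over 48°C-58°C, and extracted in PBS with 0.5% NP-40 at 4°C. Values, from duplicates, describe thermal stability against control samples on a log2 fold-change scale.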
Take C8orf76 (UniProt Q96K31): the log2 fold change is inactive: 0.019.
Then C6orf89 isoform 2 (UniProt Q6UWU4), with inactive: -0.072; and CALU isoform 4 (UniProt O43852), with inactive: -0.008; and C1GALT1C1 (UniProt Q96EU7), with inactive: 0.04.
Then C9orf40 (UniProt Q8IXQ3), with inactive: 0.1; and CAPRIN1 (UniProt Q14444), with inactive: 0.022; and C11orf68 (UniProt Q9H3H3), with inactive: -0.033.
Then CACTIN isoform 2 (UniProt Q8WUQ7), with inactive: -0.008; and C18orf32 (UniProt Q8TCD1), with inactive: 0.049.
As for C1GALT1 (UniProt Q9NS00), the log2 fold change was inactive: -0.046.
In the case of CARD19 isoform 2 (UniProt Q96LW7) it was inactive: 0.086.
Consider C17orf80 (UniProt Q9BSJ5), for which the log2 fold change was inactive: 0.035.
On to CANX isoform 2 (UniProt P27824), for which the log2 fold change is inactive: -0.042.
With C4BPA (UniProt P04003), the log2 fold change was inactive: 0.137.
Then C12orf29 (UniProt Q8N999), with inactive: -0.077; and CAB39 (UniProt Q9Y376), with inactive: 0.007; and BTRC (UniProt Q9Y297), with inactive: 0.026.
For BUB1B isoform 3 (UniProt O60566), the log2 fold change is inactive: -0.135.
Then C9orf78 (UniProt Q9NZ63), with inactive: -0.009; and C1orf52 (UniProt Q8N6N3), with inactive: -0.032; and CAD (UniProt P27708), with inactive: -0.014.
Turning to CA13 (UniProt Q8N1Q1), the log2 fold change is inactive: -0.092.
Then CALB1 (UniProt P05937), with inactive: -0.014; and C1D (UniProt Q13901), with active: 0.322.
In the case of C16orf58 (UniProt Q96GQ5) it was inactive: -0.05; in that of C9orf72 (UniProt Q96LT7), inactive: -0.041.
In the case of C19orf53 (UniProt Q9UNZ5) it was inactive: 0.061; in that of CAPZB isoform 2 (UniProt P47756), inactive: 0.007; in that of C7 (UniProt P10643), inactive: -0.519.
Take C18orf25 isoform 2 (UniProt Q96B23): the log2 fold change was inactive: -0.055.
Then CARD8 isoform 5 (UniProt Q9Y2G2), with inactive: -0.024.
